According to patent EP1211260A1, “Peptides from Ag85 of mycobacterium and uses thereof” (priority 2000, dated 2002):
Where two headings read alike, the source gives them in different places. At least one peptide structure holds a part that was inferred or is arguable (an end, a ring closure or a residue). Some compounds share one wording; it may come from a single statement. Where a SMILES comes first, the peptide text is derived from it.

What was measured:
[1] = tested on: Human HLA-A*0201-positive, H2-K^b-negative cells (JY); format: cell-based
CD8^+ T cells = format: in vivo, HLA-A2/K^b mice; settings: for CD8^+ T cell proliferation in response to the immunizing peptide: CD4-depleted splenocytes stimulated in vitro
CD8^+ T cell lines = format: cell-based, human
[2] = mice immunized with the peptide
[3] = mice immunized with the peptide, CD4-depleted splenocytes stimulated in vitro with Ag85B protein or BCG

SMILES | recognition by CTL (lysis of peptide-pulsed JY target cells) [1] | CD8^+ T cell proliferation in response to the immunizing peptide (CD8^+ T cells; [2]) | CD8^+ T cell response against whole Ag85B protein and M. bovis BCG (CD8^+ T cells; [3]) | CD8^+ T cell response against whole Ag85B protein and M. bovis BCG (CD8^+ T cells; mouse, in vivo) | lysis of HLA-A*0201^+ peptide-pulsed targets by peptide-specific human CD8^+ T cell lines (CD8^+ T cell lines) | recognition of whole Ag85B protein by peptide-specific human CD8^+ CTL lines (natural processing by human cells) (CD8^+ T cell lines; APC treated by hypertonic shock) | IFN-γ production by peptide-specific human CD8^+ T cell lines in response to specific peptide (CD8^+ T cell lines; Fig. 4B, 4E) | TNF-α production by peptide-specific human CD8^+ T cell lines in response to specific peptide (CD8^+ T cell lines; Fig. 4C, 4F) | IFN-γ production in response to the immunizing peptide (CD8^+ T cells; mice immunized with the peptide, CD4-depleted splenocytes, data not shown)
CC[C@H](C)[C@H](NC(=O)[C@H](CC(C)C)NC(=O)[C@H](CO)NC(=O)[C@@H]1CCCN1C(=O)CNC(=O)[C@H](CCSC)NC(=O)CN)C(=O)NCC(=O)N[C@@H](CC(C)C)C(=O)O [158-166] (H-GMGPSLIGL-OH) | strongly recognized | inducing proliferation against the immunizing peptides | failed to induce any CD8^+ T cell proliferation | – | – | – | – | – | –
CC[C@H](C)[C@H](NC(=O)[C@H](CCSC)NC(=O)[C@H](C)NC(=O)[C@H](CO)NC(=O)[C@H](CO)NC(=O)CNC(=O)[C@H](C)NC(=O)[C@H](CCSC)NC(=O)[C@@H](N)CO)C(=O)N[C@@H](CC(C)C)C(=O)O [126-135] (H-SMAGSSAMIL-OH) | strongly recognized | inducing proliferation against the immunizing peptides | – | failed to induce any CD8^+ T cell proliferation | – | – | – | – | –
CC[C@H](C)[C@H](NC(=O)[C@@H](N)Cc1ccccc1)C(=O)N[C@@H](Cc1ccc(O)cc1)C(=O)N[C@@H](C)C(=O)NCC(=O)N[C@@H](CO)C(=O)N[C@@H](CC(C)C)C(=O)N[C@@H](CO)C(=O)N[C@@H](C)C(=O)N[C@@H](CC(C)C)C(=O)O [143-152, FIYAGSLSAL] (H-FIYAGSLSAL-OH) | strongly recognized | proliferated | responded strongly | – | able to lyse | able to recognize whole Ag85B protein | produced | produced | produced IFN-γ
